Assay results published in article PMC7671560, “SAXS studies of X-ray induced disulfide bond damage: Engineering high-resolution insight from a low-resolution technique” (PLoS ONE, 2020).
No constants are given. Whether binding was seen depends on the method and setting. Where a sequence is shown, tags or fusion partners need not be part of it.

Target: endoHCYS (FRAGCYS-endoH-His6; Endoglycosidase-H with a 7 aa cysteine-containing fragment on its N-terminus) (UniProt P04067)
Test: SAXS; disulfide bonds reduced with 2 mM DTT; pH 5, 6, 7.5 and 9; 5.0, 2.5 and 1.25 mg/ml; data collected as for the dimer; both purified

B1: endoHCYS (FRAGCYS-endoH-His6; Endoglycosidase-H with a 7 aa cysteine-containing fragment on its N-terminus) (enzyme)
chain: SLSTGCYVKQGPTSVAYVEVNNNSMLNVGKYTLADGGGNAFDVAVIFAANINYDTGTKTAYLHFNENVQRVLDNAVTQIRPLQQQGIKVLLSVLGNHQGAGFANFPSQQAASAFAKQLSDAVAKYGLDGVDFDDEYAEYGNNGTAQPNDSSFVHLVTALRANMPDKIISLYNIGPAASRLSYGGVDVSDKFDYAWNPYYGTWQVPGIALPKAQLSPAAVEIGRTSRSTVADLARRTVDEGYGVYLTYNLDGGDRTADVSAFTRELYGSEAVRTP
notes: 7 aa fragment with a single free cysteine ('FRAGCYS') attached to the flexible N-terminus of endoH; Endoglycosidase-H (endoH), P04067, aa 47-313; has no native cysteines; The chain is written once as the protomer; two protomers join through an intermolecular disulfide between the cysteines of FRAGCYS (about 75% dimer, 25% monomer in the preparation); The structure's own numbering has Val-8 as the …
binding: no binding (condition: with 2 mM DTT)
